{"source": "paper PMC9736291", "about": "(International Journal of Molecular Sciences, 2022)", "origin": "cited, not measured here", "conditions": "cited from earlier work", "data": [{"molecule": "CN1CC[C@]23c4c5ccc(O)c4O[C@H]2[C@@H](O)C=C[C@H]3[C@H]1C5", "note": "[morphine]", "values": [{"measurement": "Vu,brain", "result": 2.1, "unit": "mL/g brain"}]}]}
